# No constants are given. Whether binding was seen depends on the method and setting. A result given as binding can be weak or reduced; the word gives no strength.
# B1: e1711 (antibody, human IgG4 S228P, kappa, V domains shown)
# VH: EVQLVESGGGLIQPGGSLRLSCAASGFTFNAYAMSWVRQAPGKGLEWVSSISTGGNTYYADSVKGRFTISRDNSKNTLYLQMNSLRAEDTAVYYCTRGYQRFSGFAYWGQGTLVTVSS
# VL: EIVLTQSPATLSLSPGERATLSCRSSQSLVHSNGNTYLNWYQQKPGQAPRLLIYKVSNRLSGIPARFSGSGSGTDFTLTISSLEPEDFAVYYCSQSTHVPYTFGQGTKLEIKR
# Molecular target: Squirrel monkey C5aR1 (squirrel monkey)
# Test: cell surface binding, flow cytometry, half-log titration 10^-7.5 to 10^-12 M
binder,measurement,value
B1,binding,binds

# Reference: US20250171555A1
